The test has as its system Nude mice, LX-1 lung xenograft intrarenal, tumor weight T/C. The test is described as follows: NCI In Vivo Anticancer Drug Screen. Data for tumor model Human Lung LX-1 Xenograft (intrarenal inoculation) in NU/NU BALB/C (nude) mice. The following applies: T/C endpoint: mean tumor weight change, schedule: Q01DX010 (sc), vehicle: Klucel (hydroxypropylcellulose) (HPC), evaluated on day 11, higher T/C = larger tumour. The method, then:
The antitumor activity of compounds was measured in mice bearing transplantable tumors. Survival or tumor size were measured and the results are expressed as the measurement made in the treated group (T) divided by the measurement made in the vehicle treated control group (C). The tumor model used in this assay is Human Lung LX-1 Xenograft (intrarenal inoculation) in NU/NU BALB/C (nude) mice
(In general: A xenograft is tissue or cells of one species grown in another, often human tumour cells in immunodeficient mice.)

The list shows only some results of the screen, not a fair sample: it covers a few groups of compounds. Not every dose and run of a compound is shown. T/C is the treated group as % of the vehicle group. Schedules are NCI's codes, read here as Q, the interval in days (D) or hours (H), X, the number of doses.

As for `CC1=CC(=O)C(N(CCCl)CCCl)=CC1=O`, the T/C by setting is: (dose: 0.75 mg/kg/injection) 95 % of control; (dose: 1.5 mg/kg/injection) 125 % of control; (dose: 3.0 mg/kg/injection) 37 % of control.

The record behind these values is PubChem BioAssay AID266 (DTP/NCI, 2004).
